Assay results

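A panel of P. falciparum strains inside erythrocytes is exposed to compounds for three days, then a DNA-binding dye reports the amount of parasite DNA. Each compound was titrated across a series from about 0.000037 to 29 µM. The number is the fitted AC50, the concentration giving a half-maximal change in signal; a lower value means higher potency, whether the curve shows a decrease or an increase. Calls follow the curve class and fit quality: every row here is inconclusive, covering signal-raising curves and weak, poorly fitted, partial or highest-dose-only inhibition curves.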

Values are in µM. All entries here are filed as inconclusive. Only part of the assay is shown, chiefly results filed as inconclusive. Potencies fitted to partial, single-point or poorly fitting curves are rough. Some entries filed as inconclusive have a full curve. The first word of each remark tells which way the curve ran; it can be opposite to the aim of the assay.

compound	tested on / at	Potency (µM)	curve as filed
COc1cc(/C=C2\CCC/C(=C\c3ccc(O)c(OC)c3)C2=O)ccc1O	CP286	14.13	inhibitor, single point
COc1cc(/C=C2\CCC/C(=C\c3ccc(O)c(OC)c3)C2=O)ccc1O	FAB9	11.22	inhibitor, single point
COc1cc(/C=C2\CCC/C(=C\c3ccc(O)c(OC)c3)C2=O)ccc1O	CP252	10	inhibitor, single point
COc1cc(/C=C2\CCC/C(=C\c3ccc(O)c(OC)c3)C2=O)ccc1O	CP194	16.94	inhibitor, single point
COc1cc(/C=C2\CCC/C(=C\c3ccc(O)c(OC)c3)C2=O)ccc1O	CP325	19.01	inhibitor, single point
COc1cc(/C=C2\CCC/C(=C\c3ccc(O)c(OC)c3)C2=O)ccc1O	CP305	16.94	inhibitor, single point
CC(C)C[C@H]1C(=O)N2CCCC2[C@]2(O)O[C@](NC(=O)[C@@H]3C=C4c5cccc6[nH]c(Br)c(c56)C[C@H]4N(C)C3)(C(C)C)C(=O)N12 (stereo partly specified)	CP315	19.01	inhibitor, single point
CC(C)C[C@H]1C(=O)N2CCCC2[C@]2(O)O[C@](NC(=O)[C@@H]3C=C4c5cccc6[nH]c(Br)c(c56)C[C@H]4N(C)C3)(C(C)C)C(=O)N12 (stereo partly specified)	CP329	15.1	inhibitor, single point
O=C(Cn1ccnc1[N+](=O)[O-])NCCO	CP297	4.256	inhibitor, partial curve, poor fit
CC[N+](CC)(CCNC(=O)C(=O)NCC[N+](CC)(CC)Cc1ccccc1Cl)Cc1ccccc1Cl	3D7	2.512	inhibitor, partial curve
CC[N+](CC)(CCNC(=O)C(=O)NCC[N+](CC)(CC)Cc1ccccc1Cl)Cc1ccccc1Cl	ECU	8.912	inhibitor, partial curve
CC[N+](CC)(CCNC(=O)C(=O)NCC[N+](CC)(CC)Cc1ccccc1Cl)Cc1ccccc1Cl	N140	2.239	inhibitor, partial curve, poor fit
CC[N+](CC)(CCNC(=O)C(=O)NCC[N+](CC)(CC)Cc1ccccc1Cl)Cc1ccccc1Cl	PC26	12	inhibitor, partial curve
CC[N+](CC)(CCNC(=O)C(=O)NCC[N+](CC)(CC)Cc1ccccc1Cl)Cc1ccccc1Cl	PC15	10	inhibitor, single point
CC[N+](CC)(CCNC(=O)C(=O)NCC[N+](CC)(CC)Cc1ccccc1Cl)Cc1ccccc1Cl	HB3	2.239	inhibitor, partial curve
CC[N+](CC)(CCNC(=O)C(=O)NCC[N+](CC)(CC)Cc1ccccc1Cl)Cc1ccccc1Cl	CP192	3.793	inhibitor, partial curve, poor fit
COc1ccc(C2C(=O)c3ccccc3C2=O)cc1	parasite line B	17.78	inhibitor, single point
COc1ccc(C2C(=O)c3ccccc3C2=O)cc1	DIV14	0.0015	activator, full curve
CC(=O)[C@@]1(O)CC[C@H]2[C@H]3C[C@@H](C)C4=CC(=O)C=C[C@]4(C)[C@@]3(F)[C@@H](O)C[C@]21C	PC26	2.558	inhibitor, partial curve, poor fit
CC(=O)[C@@]1(O)CC[C@H]2[C@H]3C[C@@H](C)C4=CC(=O)C=C[C@]4(C)[C@@]3(F)[C@@H](O)C[C@]21C	W2	0.0642	inhibitor, full curve
CC(=O)[C@@]1(O)CC[C@H]2[C@H]3C[C@@H](C)C4=CC(=O)C=C[C@]4(C)[C@@]3(F)[C@@H](O)C[C@]21C	CP266	0.0003	inhibitor
CC(=O)[C@@]1(O)CC[C@H]2[C@H]3C[C@@H](C)C4=CC(=O)C=C[C@]4(C)[C@@]3(F)[C@@H](O)C[C@]21C	CP247	0.2239	inhibitor, full curve, poor fit
CC(=O)[C@@]1(O)CC[C@H]2[C@H]3C[C@@H](C)C4=CC(=O)C=C[C@]4(C)[C@@]3(F)[C@@H](O)C[C@]21C	ICS	10	inhibitor, single point
CC(=O)[C@@]1(O)CC[C@H]2[C@H]3C[C@@H](C)C4=CC(=O)C=C[C@]4(C)[C@@]3(F)[C@@H](O)C[C@]21C	7G8	3.548	inhibitor, partial curve, poor fit
CC(C)OC(=O)C(C(=O)OC(C)C)=C1SC=CS1	CP335	4.256	inhibitor, single point
CC(C)OC(=O)C(C(=O)OC(C)C)=C1SC=CS1	P94_40	10	inhibitor, single point
CC(C)OC(=O)C(C(=O)OC(C)C)=C1SC=CS1	DIV14	13.46	inhibitor, single point
CC(C)OC(=O)C(C(=O)OC(C)C)=C1SC=CS1	DIV30	0.0005	inhibitor
COc1ccc2cc(C(C)CO)ccc2c1 (stereo unspecified)	TAB113	2.818	inhibitor, single point
O=C(c1ccccc1)C(O)c1ccccc1 (stereo unspecified)	CP247	11.22	inhibitor, single point
O=C(c1ccccc1)C(O)c1ccccc1 (stereo unspecified)	CP250	3.162	inhibitor, partial curve, poor fit

Some entries from above, unchanged:

For COc1cc(/C=C2\CCC/C(=C\c3ccc(O)c(OC)c3)C2=O)ccc1O [CP194] the result was Potency 16.94 µM (inhibitor, single point).
For CC(C)OC(=O)C(C(=O)OC(C)C)=C1SC=CS1 [P94_40] the result was Potency 10 µM (inhibitor, single point).
For COc1ccc2cc(C(C)CO)ccc2c1 (stereo unspecified) [TAB113] the result was Potency 2.818 µM (inhibitor, single point).

Source: PubChem BioAssay AID504749 (NCATS, 2011).